Results as given in doi:10.1101/462036 (bioRxiv, 2018).
Results are given in words; binding and its absence hold for the method and conditions named. Some binding calls cover weakened binding; strength is not graded here.

By UniProt entry, the sequences of proteins in these tests, tags left out. Residues count along the entry.
UniProt Q80Z24, residues 32-318: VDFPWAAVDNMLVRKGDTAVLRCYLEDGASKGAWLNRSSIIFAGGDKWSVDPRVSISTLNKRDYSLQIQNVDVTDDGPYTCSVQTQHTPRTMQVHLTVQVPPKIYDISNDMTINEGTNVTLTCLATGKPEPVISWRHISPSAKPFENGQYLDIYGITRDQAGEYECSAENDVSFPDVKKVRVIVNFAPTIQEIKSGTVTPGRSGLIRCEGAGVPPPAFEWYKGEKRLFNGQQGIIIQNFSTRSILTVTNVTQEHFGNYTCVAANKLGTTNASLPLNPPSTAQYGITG

Biological target: Mouse NEGR1 full-length ectodomain (mouse) (UniProt Q80Z24)
Assay: extracellular interactome assay

B1: Mouse NTM full-length ectodomain (domain or fragment, UniProt Q99PJ0 34-321)
chain: GDATFPKAMDNVTVRQGESATLRCTIDNRVTRVAWLNRSTILYAGNDKWCLDPRVVLLSNTQTQYSIEIQNVDVYDEGPYTCSVQTDNHPKTSRVHLIVQVSPKIVEISSDISINEGNNISLTCIATGRPEPTVTWRHISPKAVGFVSEDEYLEIQGITREQSGEYECSASNDVAAPVVRRVKVTVNYPPYISEAKGTGVPVGQKGTLQCEASAVPSAEFQWFKDDKRLVEGKKGVKVENRPFLSKLTFFNVSEHDYGNYTCVASNKLGHTNASIMLFGPGAVSEVNN
Question: Which binding does the source give for B1 here?
Answer: binds
